Data reported in publication PMC11375261.
Results are given in words; binding and its absence hold for the method and conditions named. In cells and extracts the contact can be indirect. Some binding calls cover weakened binding; strength is not graded here. For part of these data: Tags and fused reporters may be left off the sequences shown. Each block holds one molecule with its values, some of them ahead of it.

The chains behind the UniProt entries cited, without tags or fusion partners. Where a name states a change or a piece, a line headed by the entry shows the natural chain unless it says otherwise.
UniProt P19634: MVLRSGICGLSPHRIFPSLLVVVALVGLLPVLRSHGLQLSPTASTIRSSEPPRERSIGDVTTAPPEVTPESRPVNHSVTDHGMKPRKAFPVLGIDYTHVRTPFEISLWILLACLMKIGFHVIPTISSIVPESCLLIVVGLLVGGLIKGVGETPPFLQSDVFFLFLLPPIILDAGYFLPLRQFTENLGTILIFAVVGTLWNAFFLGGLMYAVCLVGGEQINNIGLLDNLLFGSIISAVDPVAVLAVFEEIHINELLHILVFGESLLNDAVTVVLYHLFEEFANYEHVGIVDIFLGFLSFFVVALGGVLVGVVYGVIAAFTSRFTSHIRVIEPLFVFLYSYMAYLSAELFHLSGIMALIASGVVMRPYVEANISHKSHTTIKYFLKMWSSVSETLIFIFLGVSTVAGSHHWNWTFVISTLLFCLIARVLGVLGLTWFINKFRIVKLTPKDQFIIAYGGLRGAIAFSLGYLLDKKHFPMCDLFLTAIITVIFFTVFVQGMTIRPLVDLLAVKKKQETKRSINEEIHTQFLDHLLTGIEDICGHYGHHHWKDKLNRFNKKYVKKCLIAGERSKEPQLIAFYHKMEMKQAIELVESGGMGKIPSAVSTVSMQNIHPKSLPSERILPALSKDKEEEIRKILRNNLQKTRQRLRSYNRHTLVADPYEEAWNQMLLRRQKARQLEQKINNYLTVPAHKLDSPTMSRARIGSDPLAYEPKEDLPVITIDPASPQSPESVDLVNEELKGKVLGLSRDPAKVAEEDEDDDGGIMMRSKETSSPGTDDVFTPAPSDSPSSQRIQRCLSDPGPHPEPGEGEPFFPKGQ

What was measured:
[1] = target: T1, c-Myc-GGA1 (mouse GGA1 in pCMV-c-Myc) (mouse) (UniProt Q8R0H9); test: co-IP; HEK293T cells cotransfected with c-Myc-GGA1 and an HA-tagged NHE construct; lysate precipitated with anti-c-Myc, blotted with anti-NHE6 or anti-HA
T1 sequence: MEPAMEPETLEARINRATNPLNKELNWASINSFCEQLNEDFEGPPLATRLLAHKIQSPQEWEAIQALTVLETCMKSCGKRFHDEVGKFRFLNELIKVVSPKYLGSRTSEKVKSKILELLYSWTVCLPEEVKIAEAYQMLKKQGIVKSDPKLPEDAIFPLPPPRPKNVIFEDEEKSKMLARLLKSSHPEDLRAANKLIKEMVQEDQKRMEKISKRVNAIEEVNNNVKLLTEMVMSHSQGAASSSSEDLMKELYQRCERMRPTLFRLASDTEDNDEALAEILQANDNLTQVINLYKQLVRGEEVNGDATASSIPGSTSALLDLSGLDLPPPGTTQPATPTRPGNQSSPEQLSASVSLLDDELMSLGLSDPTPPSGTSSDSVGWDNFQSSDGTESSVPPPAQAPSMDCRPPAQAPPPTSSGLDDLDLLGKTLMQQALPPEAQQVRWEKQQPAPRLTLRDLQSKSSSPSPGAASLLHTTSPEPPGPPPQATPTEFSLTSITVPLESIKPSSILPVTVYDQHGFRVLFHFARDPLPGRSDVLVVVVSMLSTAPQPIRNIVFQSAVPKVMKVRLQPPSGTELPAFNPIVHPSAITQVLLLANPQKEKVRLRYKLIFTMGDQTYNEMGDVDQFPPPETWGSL

[2] = target: T2, endogenous NHE6 of mouse brain (mouse (endogenous in brain tissue)) (UniProt A1L3P4); test: co-IP; endogenous proteins; homogenised cortical brain lysate of WT and NHE6-null mice (P0) precipitated with anti-NHE6 (normal rabbit IgG as control), blotted with anti-GGA1
T2 sequence: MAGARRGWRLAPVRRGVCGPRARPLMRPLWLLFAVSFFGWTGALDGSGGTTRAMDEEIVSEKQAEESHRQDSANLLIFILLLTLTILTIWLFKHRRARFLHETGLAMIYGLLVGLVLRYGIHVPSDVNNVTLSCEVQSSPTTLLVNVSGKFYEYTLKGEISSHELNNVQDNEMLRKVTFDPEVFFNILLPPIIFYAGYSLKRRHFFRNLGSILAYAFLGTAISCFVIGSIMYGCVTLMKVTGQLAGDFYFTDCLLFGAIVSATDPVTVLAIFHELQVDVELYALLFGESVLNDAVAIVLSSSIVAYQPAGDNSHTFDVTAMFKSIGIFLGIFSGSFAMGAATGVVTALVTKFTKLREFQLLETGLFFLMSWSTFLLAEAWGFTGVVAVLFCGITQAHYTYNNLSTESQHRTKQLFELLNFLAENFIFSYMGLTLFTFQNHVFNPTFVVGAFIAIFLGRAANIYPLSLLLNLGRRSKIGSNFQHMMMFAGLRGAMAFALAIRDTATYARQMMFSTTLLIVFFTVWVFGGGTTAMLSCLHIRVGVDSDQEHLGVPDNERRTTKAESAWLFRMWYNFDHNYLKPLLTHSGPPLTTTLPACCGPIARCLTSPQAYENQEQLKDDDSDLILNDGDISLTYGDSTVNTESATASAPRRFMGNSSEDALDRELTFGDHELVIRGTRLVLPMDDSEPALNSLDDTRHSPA

[3] = target: T3, endogenous NHE6 of SH-SY5Y neuroblastoma cells (human (endogenous in SH-SY5Y)) (UniProt Q92581); test: co-IP; endogenous proteins; SH-SY5Y lysate precipitated with anti-NHE6 (normal rabbit IgG as control), blotted with anti-GGA1
T3 sequence: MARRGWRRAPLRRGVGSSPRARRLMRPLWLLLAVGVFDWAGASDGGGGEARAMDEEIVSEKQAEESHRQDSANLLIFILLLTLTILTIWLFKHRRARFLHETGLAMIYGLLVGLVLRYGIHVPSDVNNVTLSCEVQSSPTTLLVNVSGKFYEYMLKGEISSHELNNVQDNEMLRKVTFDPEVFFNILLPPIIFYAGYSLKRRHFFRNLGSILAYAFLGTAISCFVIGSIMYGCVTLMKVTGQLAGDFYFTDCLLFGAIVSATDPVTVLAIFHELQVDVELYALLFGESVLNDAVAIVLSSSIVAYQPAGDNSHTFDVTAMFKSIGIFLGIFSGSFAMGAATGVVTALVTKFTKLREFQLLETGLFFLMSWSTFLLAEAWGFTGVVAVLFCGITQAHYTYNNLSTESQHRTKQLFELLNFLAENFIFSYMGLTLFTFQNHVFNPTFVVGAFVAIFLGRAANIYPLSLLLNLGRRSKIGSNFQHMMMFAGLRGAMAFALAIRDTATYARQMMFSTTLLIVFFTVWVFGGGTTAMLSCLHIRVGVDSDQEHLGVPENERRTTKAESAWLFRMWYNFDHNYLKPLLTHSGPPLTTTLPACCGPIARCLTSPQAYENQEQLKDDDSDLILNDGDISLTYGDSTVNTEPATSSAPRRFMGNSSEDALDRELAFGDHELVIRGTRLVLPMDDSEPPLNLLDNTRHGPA

Molecule: mutagenesis (G720D) corrected hNHE1-HA (from UniProt P19634 1-815)
binding [1]: binds weakly

binding [1]: binds weakly
B1: HA-tagged human NHE5 (protein, UniProt Q14940 1-896)
chain: MLRAALSLLALPLAGAAEEPTQKPESPGEPPPGLELFRWQWHEVEAPYLVALWILVASLAKIVFHLSRKVTSLVPESCLLILLGLVLGGIVLAVAKKAEYQLEPGTFFLFLLPPIVLDSGYFMPSRLFFDNLGAILTYAVVGTLWNAFTTGAALWGLQQAGLVAPRVQAGLLDFLLFGSLISAVDPVAVLAVFEEVHVNETLFIIVFGESLLNDAVTVVLYKVCNSFVEMGSANVQATDYLKGVASLFVVSLGGAAVGLVFAFLLALTTRFTKRVRIIEPLLVFLLAYAAYLTAEMASLSAILAVTMCGLGCKKYVEANISHKSRTTVKYTMKTLASCAETVIFMLLGISAVDSSKWAWDSGLVLGTLIFILFFRALGVVLQTWVLNQFRLVPLDKIDQVVMSYGGLRGAVAFALVILLDRTKVPAKDYFVATTIVVVFFTVIVQGLTIKPLVKWLKVKRSEHHKPTLNQELHEHTFDHILAAVEDVVGHHGYHYWRDRWEQFDKKYLSQLLMRRSAYRIRDQIWDVYYRLNIRDAISFVDQGGHVLSSTGLTLPSMPSRNSVAETSVTNLLRESGSGACLDLQVIDTVRSGRDREDAVMHHLLCGGLYKPRRRYKASCSRHFISEDAQERQDKEVFQQNMKRRLESFKSTKHNICFTKSKPRPRKTGRRKKDGVANAEATNGKHRGLGFQDTAAVILTVESEEEEEESDSSETEKEDDEGIIFVARATSEVLQEGKVSGSLEVCPSPRIIPPSPTCAEKELPWKSGQGDLAVYVSSETTKIVPVDMQTGWNQSISSLESLASPPCNQAPILTCLPPHPRGTEEPQVPLHLPSDPRSSFAFPPSLAKAGRSRSESSADLPQQQELQPLMGHKDHTHLSPGTATSHWCIQFNRGSRL

binding [2]: binds
B2: endogenous GGA1 of mouse brain (protein, UniProt Q8R0H9 1-635)
chain: T1 sequence

binding [1]: binds
B3: HA-tagged mouse NHE9 (protein, UniProt Q8BZ00 1-644)
chain: MAGQLRFTSGKDEDHFQHQGAVELLAFNFLLILTILTIWLFKNHRFRFLHETGGAMVYGLIMGLILRYATAPTDIDSGTVYNCGNLFFSPSTLLVNITDQVYEYKYQREINQHNISPHQGNAILEKMTFDPEIFFNVLLPPIIFHAGYSLKKRHFFQNLGSILTYAFLGTAISCVVIGLIMYGFVKAMVHAGQLKSGDFHFTDCLFFGSLMSATDPVTVLAIFHELHVDPDLYTLLFGESVLNDAVAIVLTYSISIYSPKENPNAFDTAAFFQSVGNFLGIFAGSFAMGSAYAVVTALLTKFTKLREFPMLETGLFFLLSWSAFLSAEAAGLTGIVAVLFCGVTQAHYTYNNLSSDSKLRTKQLFEFMNFLAENVIFCYMGLALFTFQNHIFNALFILGAFLAIFVARACNIYPLSFLLNLGRKQKIPWNFQHMMMFSGLRGAIAFALAIRNTESQPKQMMFTTTLLLVFFTVWVFGGGTTPMLTWLQIRVGVDLDESLKEEPSSQQEANKLDKNMTKTESAQLFRMWYGFDHKYLKPILTHSGPPLTTTLPAWCGPVSRLLTSPQAYGEQLKEDDVECIVNQDELAMNYQEQSPSPSSPTTKLALDQKSSGQTPGKENIYEGDLGLGGYDLKLEQTRGQPQMD

binding [1]: binds
B4: HA-tagged human NHE7 (protein, UniProt Q96T83 1-725)
chain: MEPGDAARPGSGRATGAPPPRLLLLPLLLGWGLRVAAAASASSSGAAAEDSSAMEELATEKEAEESHRQDSVSLLTFILLLTLTILTIWLFKHRRVRFLHETGLAMIYGLIVGVILRYGTPATSGRDKSLSCTQEDRAFSTLLVNVSGKFFEYTLKGEISPGKINSVEQNDMLRKVTFDPEVFFNILLPPIIFHAGYSLKKRHFFRNLGSILAYAFLGTAVSCFIIGNLMYGVVKLMKIMGQLSDKFYYTDCLFFGAIISATDPVTVLAIFNELHADVDLYALLFGESVLNDAVAIVLSSSIVAYQPAGLNTHAFDAAAFFKSVGIFLGIFSGSFTMGAVTGVNANVTKFTKLHCFPLLETALFFLMSWSTFLLAEACGFTGVVAVLFCGITQAHYTYNNLSVESRSRTKQLFEVLHFLAENFIFSYMGLALFTFQKHVFSPIFIIGAFVAIFLGRAAHIYPLSFFLNLGRRHKIGWNFQHMMMFSGLRGAMAFALAIRDTASYARQMMFTTTLLIVFFTVWIIGGGTTPMLSWLNIRVGVEEPSEEDQNEHHWQYFRVGVDPDQDPPPNNDSFQVLQGDGPDSARGNRTKQESAWIFRLWYSFDHNYLKPILTHSGPPLTTTLPAWCGLLARCLTSPQVYDNQEPLREEDSDFILTEGDLTLTYGDSTVTANGSSSSHTASTSLEGSRRTKSSSEEVLERDLGMGDQKVSSRGTRLVFPLEDNA

binding [3]: binds
B5: endogenous GGA1 of SH-SY5Y neuroblastoma cells (protein, UniProt Q9UJY5 1-639)
chain: MEPAMEPETLEARINRATNPLNKELDWASINGFCEQLNEDFEGPPLATRLLAHKIQSPQEWEAIQALTVLETCMKSCGKRFHDEVGKFRFLNELIKVVSPKYLGSRTSEKVKNKILELLYSWTVGLPEEVKIAEAYQMLKKQGIVKSDPKLPDDTTFPLPPPRPKNVIFEDEEKSKMLARLLKSSHPEDLRAANKLIKEMVQEDQKRMEKISKRVNAIEEVNNNVKLLTEMVMSHSQGGAAAGSSEDLMKELYQRCERMRPTLFRLASDTEDNDEALAEILQANDNLTQVINLYKQLVRGEEVNGDATAGSIPGSTSALLDLSGLDLPPAGTTYPAMPTRPGEQASPEQPSASVSLLDDELMSLGLSDPTPPSGPSLDGTGWNSFQSSDATEPPAPALAQAPSMESRPPAQTSLPASSGLDDLDLLGKTLLQQSLPPESQQVRWEKQQPTPRLTLRDLQNKSSSCSSPSSSATSLLHTVSPEPPRPPQQPVPTELSLASITVPLESIKPSNILPVTVYDQHGFRILFHFARDPLPGRSDVLVVVVSMLSTAPQPIRNIVFQSAVPKVMKVKLQPPSGTELPAFNPIVHPSAITQVLLLANPQKEKVRLRYKLTFTMGDQTYNEMGDVDQFPPPETWGSL
